Source: publication doi:10.1101/2025.10.09.681388 (bioRxiv, 2025)
No constants are given. Whether binding was seen depends on the method and setting. Sequences can lack the tags named with a protein.

Experiments:
[1] = biological target: T1, Dvl2 (amino acids 182-389) (human) (UniProt O14641); experiment: ELISA
T1 sequence: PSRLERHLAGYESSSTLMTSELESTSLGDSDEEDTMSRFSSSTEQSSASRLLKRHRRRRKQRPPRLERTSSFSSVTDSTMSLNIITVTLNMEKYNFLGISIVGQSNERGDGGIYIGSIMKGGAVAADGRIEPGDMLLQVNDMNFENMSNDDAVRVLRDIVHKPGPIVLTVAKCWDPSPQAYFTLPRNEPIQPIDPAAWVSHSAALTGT

[2] = biological target: T2, Dvl2 (amino acids 390-536) (human) (UniProt O14641); experiment: ELISA
T2 sequence: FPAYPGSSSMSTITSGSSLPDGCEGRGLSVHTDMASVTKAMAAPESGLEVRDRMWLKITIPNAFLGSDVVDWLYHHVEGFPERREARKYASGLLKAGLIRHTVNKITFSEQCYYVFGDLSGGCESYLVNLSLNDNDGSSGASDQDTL

binding [1]: no binding | binding [2]: no binding
B1: GST-tagged profilin2 (natural protein, mouse, UniProt Q9JJV2 1-140, looked up)
chain: MAGWQSYVDNLMCDGCCQEAAIVGYCDAKYVWAATAGGVFQSITPVEIDMIVGKDREGFFTNGLTLGAKKCSVIRDSLYVDGDCTMDIRTKSQGGEPTYNVAVGRAGRVLVFVMGKEGVHGGGLNKKAYSMAKYLRDSGF
